# Percent effect of library compounds

From ChEMBL document CHEMBL3988442, “University of Dundee, Small-Polar-MMV Screening Library” (2021).

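Assay of Toxoplasma gondii numbers, read through their beta-galactosidase reporter with a colour substrate. Compounds at 50 µM. Higher reads as fewer parasites (inferred from which compounds were picked for retests). Size under these conditions: about 18,000 compounds, about 170 of them at 50% or above in at least one test.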

Values are the deposited “Percent Effect”, in %. The record does not define 0% and 100%; most values in the screen are far below 50% and negative numbers occur (in some assays of this library far below -100). This is an unselected part of the compounds tested.

Compound,percent effect
CCOC(=O)c1cnn(-c2ccc(Br)cn2)c1N,-1.731%
COc1ccccc1NC(=O)Cn1ccnc1,4.089%
Cc1noc(C)c1CCC(=O)N(C)Cc1ccncc1,1.009%
CN(C1CCCC1)S(=O)(=O)NCCNc1ccccn1,5.146%
CC(O)C1CCN(Cc2nc(N)nc(N(C)C)n2)CC1 (stereo not given),-18.4%
COc1ccccc1CCNC(=O)NC[C@H](C)O,-2.043%
CC(=O)NC(C(=O)N1CCSCC1)C(C)C (stereo not given),-0.4391%
COCCNC(=O)NCc1cccc(-n2cccn2)c1,0.9743%
NC(=O)c1cccc(NC(=O)Cc2ccc(F)cc2)c1,5.207%
COC(=O)c1n[nH]c2ccc(NC(=O)C(C)C)cc12,-0.7235%
OC1CCNCc2ccccc21 (stereo not given),-76.9%
CNC(=O)C1CCCCN1C(=O)Cn1nc(C)cc1N (stereo not given),-4.031%
CCCC1C(=O)NCCN1c1ncc(F)cn1 (stereo not given),-3.966%
C[C@@H]1CN(CCC(=O)NC2CCCC2)CC[C@]1(C)O,11.32%
Clc1ccc(CN2CCN(Cc3csnn3)CC2)nc1,-0.3067%
CCCn1ccnc1CNC(=O)c1cn(CCN)nn1,1.775%
COC(CNC(=O)NCC(C)(C)O)c1cccc(Cl)c1 (stereo not given),5.043%
N#Cc1cccc(CCNC(=O)NCCO)c1,1.759%
CSC1(CN)CCOCC1,-7.156%
COCCS(=O)(=O)CC(=O)Nc1ccccc1Br,-11.14%
CNCC(=O)Nc1cc(F)cc(F)c1,12.71%
Cc1nccn1CCCN1CCCC1C(=O)N(C)C (stereo not given),-0.2101%
CN(CC(N)=O)Cc1csc(Br)c1,-16.27%
CC(NC(=O)c1ccccc1Cl)C(=O)NC1CC1 (stereo not given),7.926%
NCc1cccc(-n2ccnn2)c1,0.159%
CC(N)c1cc(F)ccc1N(C)C (stereo not given),-0.7859%
O=C(CO)NC1CCN(Cc2cc(Cl)cc(Cl)c2)CC1,-1.374%
O=C1NCCC1C1(O)CCOCC1 (stereo not given),-8.507%
Cc1ccccc1OCCCNC(=O)C1COCCN1 (stereo not given),-6.021%
CCC(C)(C#N)NC(=O)c1ccccc1 (stereo not given),2.869%
CCCn1nnnc1NCc1ccsc1,18.4%
CC(C)CC(O)C(=O)N1CCN(c2cccnc2)CC1 (stereo not given),-4.266%
Cc1cccnc1CC(C)NC(=O)c1cnco1 (stereo not given),7.414%
Cc1nn(C)c(C)c1CCC(=O)Nc1cnccc1O,-6.961%
CC(C)CC(CN)CO (stereo not given),-23.02%
CSCc1nc(CNC(=O)c2ccnn2C(C)C)cs1,1.993%
COCc1cc(N2CCCC(CO)C2)n2nccc2n1 (stereo not given),-18.7%
CC(C)(CO)NCC(O)c1cccc(Cl)c1 (stereo not given),48.83%
CC(C)C(=O)c1cnccc1NC(=O)C1CCCOC1 (stereo not given),-6.183%
COc1cccc(CNC(=O)Cn2cnc(C#N)n2)c1,2.429%
Cc1noc(C)c1CC(=O)N1CCC(CC(N)=O)CC1,-20.48%
Cc1ccc(C(=O)N2CCN(C)CC2)cn1,10.12%
CN(C)S(=O)(=O)c1csc(C(=O)N2CCOCC2)c1,-5.203%
CN(CCOc1ccc(Cl)cc1)S(C)(=O)=O,-17.54%
Cc1ccccc1CS(=O)(=O)NCCCN,-10.52%

The last 3 entries again:

Compound,percent effect
CN(C)S(=O)(=O)c1csc(C(=O)N2CCOCC2)c1,-5.203%
CN(CCOc1ccc(Cl)cc1)S(C)(=O)=O,-17.54%
Cc1ccccc1CS(=O)(=O)NCCCN,-10.52%